The target of the test is MYCN (human (endogenous in SK-N-BE(2)-C)) (UniProt P04198). As to the kind of experiment: proximity ligation; DuoLink PLA (Sigma) on SK-N-BE(2)-C cells, with or without verlindamycin treatment; confocal microscopy, dots scored with DuoLink ImageTool.

Chains of the proteins cited; added tags and fusions are not shown.
UniProt P04198: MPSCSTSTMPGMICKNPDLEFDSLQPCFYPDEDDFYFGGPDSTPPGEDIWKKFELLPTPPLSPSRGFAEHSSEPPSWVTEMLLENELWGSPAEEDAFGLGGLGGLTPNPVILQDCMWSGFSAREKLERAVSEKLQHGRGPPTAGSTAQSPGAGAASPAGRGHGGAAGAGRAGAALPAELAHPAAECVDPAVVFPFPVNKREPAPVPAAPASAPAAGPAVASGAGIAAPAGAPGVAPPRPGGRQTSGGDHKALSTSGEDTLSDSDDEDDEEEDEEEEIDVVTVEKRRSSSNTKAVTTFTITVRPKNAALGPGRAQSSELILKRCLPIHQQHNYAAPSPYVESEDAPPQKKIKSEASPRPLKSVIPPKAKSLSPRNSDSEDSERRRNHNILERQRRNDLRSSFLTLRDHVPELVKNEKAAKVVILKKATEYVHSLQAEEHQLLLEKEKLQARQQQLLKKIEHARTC
UniProt Q969H0: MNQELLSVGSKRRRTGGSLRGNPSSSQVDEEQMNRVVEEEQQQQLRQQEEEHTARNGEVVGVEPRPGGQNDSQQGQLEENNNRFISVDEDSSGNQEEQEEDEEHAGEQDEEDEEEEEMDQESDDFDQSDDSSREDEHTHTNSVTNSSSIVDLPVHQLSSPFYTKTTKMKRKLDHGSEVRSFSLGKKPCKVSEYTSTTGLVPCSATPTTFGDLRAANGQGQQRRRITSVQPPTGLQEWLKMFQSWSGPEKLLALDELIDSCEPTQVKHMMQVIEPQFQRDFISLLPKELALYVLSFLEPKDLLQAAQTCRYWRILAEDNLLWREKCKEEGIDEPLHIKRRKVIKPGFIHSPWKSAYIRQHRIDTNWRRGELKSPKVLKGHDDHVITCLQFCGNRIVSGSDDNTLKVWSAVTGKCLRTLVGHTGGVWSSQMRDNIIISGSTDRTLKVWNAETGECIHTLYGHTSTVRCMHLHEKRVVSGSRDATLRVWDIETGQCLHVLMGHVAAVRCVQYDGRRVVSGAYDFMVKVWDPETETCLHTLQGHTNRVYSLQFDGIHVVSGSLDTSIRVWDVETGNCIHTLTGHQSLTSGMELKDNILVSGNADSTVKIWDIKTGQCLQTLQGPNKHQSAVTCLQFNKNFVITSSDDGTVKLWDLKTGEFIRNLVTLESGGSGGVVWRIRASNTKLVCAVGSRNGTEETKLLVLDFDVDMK

No constants are given. Whether binding was seen depends on the method and setting. In cells and extracts the contact can be indirect. Some results given as binding are weak or reduced against the parent protein; the word gives no strength.

In the case of “FBXW7 ubiquitin ligase (from UniProt Q969H0 1-707)”, the binding entry was “binds”.

Values taken from publication PMC9293756.
